At least one structure is not confirmed: it was looked up by name or label, or the drawing left a doubt.
System: V. cholerae N16961
Assay: Microscopy inspection of cell morphology (spherical cells) after exposure to carbon sources
Type: cell-based, Vibrio cholerae
Conditions: V. cholerae N16961, M9-MM, 0.2% of carbon source; + / - not defined by a legend
Description: Cells were grown to exponential phase and spread on a 1% (w/v) agar pad (ultrapure agarose, Invitrogen) for analysis. For snapshot analyses, cells images were acquired using a DM6000-B (Leica) microscope. For time-lapse analyses the agarose pad was made using M9-MM and images were acquired using an Evolve 512 EMCCD camera (Roper Scientific) attached to an Axio Observe spinning disk (Zeiss).
During experiments in which inventors used an arabinose-inducible promoter to express fluorescently tagged proteins in V. cholerae, they occasionally observed the presence of spherical cells. […]. To better understand this phenotype, inventors grew V. cholerae cells to exponential phase in different liquid media and added increasing concentrations of L-Ara. After a few hours, they inspected the cells morphology at the microscope. […] To see the effect of L-Ara on cell proliferation and growth, overnight cultures were diluted into fresh media containing increasing amounts of the inducer. The OD of these cultures was monitored over time (Figure 2). […].

For `OC[C@H]1OC(O)[C@H](O)[C@@H](O)[C@@H]1O` (stereo partly shown) [Gluocose, reference compound], the Spherical cells was “-”.
